Read-outs that look alike come from different tables or passages of the source. These are yes or no findings as the source states them, for the method shown. Some binding calls cover weakened binding; strength is not graded here.

The chains behind the UniProt entries cited, without tags or fusion partners. Residues count along the entry.
UniProt Q9Y2L5, residues 1002-1063: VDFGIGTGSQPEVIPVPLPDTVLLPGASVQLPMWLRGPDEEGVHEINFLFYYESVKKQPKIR

Holding throughout (experiment): two-hybrid
In assay [1] the target is T1, C terminus of human TMEM131 (yeast two-hybrid bait) (human) (UniProt Q92545).
T1 sequence: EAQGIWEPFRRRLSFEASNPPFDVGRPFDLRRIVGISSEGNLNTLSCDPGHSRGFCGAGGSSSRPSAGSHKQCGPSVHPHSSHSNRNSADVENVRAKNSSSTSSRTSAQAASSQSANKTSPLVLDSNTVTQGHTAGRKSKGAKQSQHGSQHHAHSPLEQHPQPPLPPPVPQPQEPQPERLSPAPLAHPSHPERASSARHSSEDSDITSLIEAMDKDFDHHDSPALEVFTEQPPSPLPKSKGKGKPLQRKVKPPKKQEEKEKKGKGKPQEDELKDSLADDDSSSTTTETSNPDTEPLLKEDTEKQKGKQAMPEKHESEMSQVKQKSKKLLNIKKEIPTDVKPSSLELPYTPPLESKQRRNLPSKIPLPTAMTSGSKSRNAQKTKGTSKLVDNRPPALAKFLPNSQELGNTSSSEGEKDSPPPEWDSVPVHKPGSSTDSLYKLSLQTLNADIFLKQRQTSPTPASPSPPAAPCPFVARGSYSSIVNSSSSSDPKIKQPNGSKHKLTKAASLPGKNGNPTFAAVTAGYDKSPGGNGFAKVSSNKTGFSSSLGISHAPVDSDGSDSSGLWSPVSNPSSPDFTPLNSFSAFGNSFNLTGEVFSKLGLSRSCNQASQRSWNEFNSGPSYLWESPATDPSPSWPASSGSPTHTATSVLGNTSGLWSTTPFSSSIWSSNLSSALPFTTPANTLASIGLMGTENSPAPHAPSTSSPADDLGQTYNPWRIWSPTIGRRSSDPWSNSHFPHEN

In assay [2] the target is T2, TMEM131 Ct with the very C-terminal end deleted (1741-1883 a.a.) (human) (UniProt Q92545).
T2 sequence: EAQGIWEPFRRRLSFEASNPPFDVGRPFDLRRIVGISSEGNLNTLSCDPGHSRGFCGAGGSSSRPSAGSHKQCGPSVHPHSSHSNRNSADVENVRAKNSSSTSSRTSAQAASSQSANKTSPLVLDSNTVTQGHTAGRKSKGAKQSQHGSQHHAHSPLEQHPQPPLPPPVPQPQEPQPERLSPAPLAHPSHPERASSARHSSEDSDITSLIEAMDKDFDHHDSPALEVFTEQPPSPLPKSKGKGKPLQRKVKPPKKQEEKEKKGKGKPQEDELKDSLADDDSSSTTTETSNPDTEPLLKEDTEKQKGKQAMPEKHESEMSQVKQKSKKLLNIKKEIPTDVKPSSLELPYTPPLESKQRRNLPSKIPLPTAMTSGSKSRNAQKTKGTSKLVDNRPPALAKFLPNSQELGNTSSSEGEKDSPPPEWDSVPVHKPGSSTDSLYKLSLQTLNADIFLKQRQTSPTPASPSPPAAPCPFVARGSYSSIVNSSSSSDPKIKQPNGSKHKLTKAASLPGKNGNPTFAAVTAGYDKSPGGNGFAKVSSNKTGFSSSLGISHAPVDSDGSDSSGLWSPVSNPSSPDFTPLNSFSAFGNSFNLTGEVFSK

Assay [3] concerns the target T1, C terminus of human TMEM131 (yeast two-hybrid bait) (human). The source holds these as a separate data set.

As for “TRAPPC8 C-terminal region, prey cDNA clone a.a. 1002-1063 (from UniProt Q9Y2L5 1002-1063) (domain or fragment)”, the binding entry in assay [1] was “binds”; in assay [2], “no binding”; in assay [3], “binds”.
